These results are taken from publication PMC11035515 (Drugs in R&D, 2023).

SMILES strings stand for the structures.

The subject of one data set is CYP2C8. Kind of data set: in vitro. Format: in vitro ADME. The following applies: human, mRNA levels EC50, donor 2, 72 h.
A further data set concerns CYP2C9. Kind of data set: in vitro. It counts as in vitro ADME. The following applies: human, mRNA levels EC50, donor 2, 72 h.
A short description of another data set: Study 1. Format: in vivo, human. Conditions: single 25-mg oral dose of [14C]-esmethadone.
For a further data set, the system named is CYP2C19. As to the kind of experiment: in vitro. Format: in vitro ADME. The following applies: human.

Consider `CCC(=O)C(C[C@H](C)N(C)C)(c1ccccc1)c1ccccc1` [esmethadone], for which the EC50 at 72 h turned out to be 6.42 µM with CYP2C8, 6.31 µM in the data set on CYP2C9 and 6.68 µM in the data set on CYP2C19. Moreover, the “Radioactivity excreted in feces” value in the data set “Study 1” is 39.1 % of the dose.
